Experimental data published in article PMC5656746.
Results are given in words; binding and its absence hold for the method and conditions named. Binding seen in cells or lysates may run through a third protein. Some results given as binding are weak or reduced against the parent protein; the word gives no strength. Tags and fused reporters may be left off the sequences shown.

Amino acid sequences for entries named in this document (tags omitted). Residues count along the entry.
UniProt P78536, residues 215-824: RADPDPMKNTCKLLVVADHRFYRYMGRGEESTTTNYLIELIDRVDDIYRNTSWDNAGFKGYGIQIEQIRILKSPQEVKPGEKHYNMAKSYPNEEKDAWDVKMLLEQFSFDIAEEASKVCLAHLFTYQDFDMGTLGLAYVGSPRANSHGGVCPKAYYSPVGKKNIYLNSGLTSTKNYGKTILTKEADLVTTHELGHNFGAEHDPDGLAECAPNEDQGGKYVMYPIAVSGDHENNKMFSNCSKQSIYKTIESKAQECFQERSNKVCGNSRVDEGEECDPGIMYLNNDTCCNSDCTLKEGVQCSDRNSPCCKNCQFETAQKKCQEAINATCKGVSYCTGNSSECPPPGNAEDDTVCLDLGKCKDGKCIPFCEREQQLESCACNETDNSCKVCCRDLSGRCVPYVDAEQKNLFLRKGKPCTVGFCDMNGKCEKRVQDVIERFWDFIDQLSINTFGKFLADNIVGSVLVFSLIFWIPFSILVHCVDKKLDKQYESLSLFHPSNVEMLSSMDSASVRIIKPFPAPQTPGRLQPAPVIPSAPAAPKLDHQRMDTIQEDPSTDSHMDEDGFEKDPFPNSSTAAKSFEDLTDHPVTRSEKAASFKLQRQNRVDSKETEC

Biological target: T1, HA-tagged mouse iRhom2 (wild type) (mouse) (UniProt Q80WQ6)
T1 sequence: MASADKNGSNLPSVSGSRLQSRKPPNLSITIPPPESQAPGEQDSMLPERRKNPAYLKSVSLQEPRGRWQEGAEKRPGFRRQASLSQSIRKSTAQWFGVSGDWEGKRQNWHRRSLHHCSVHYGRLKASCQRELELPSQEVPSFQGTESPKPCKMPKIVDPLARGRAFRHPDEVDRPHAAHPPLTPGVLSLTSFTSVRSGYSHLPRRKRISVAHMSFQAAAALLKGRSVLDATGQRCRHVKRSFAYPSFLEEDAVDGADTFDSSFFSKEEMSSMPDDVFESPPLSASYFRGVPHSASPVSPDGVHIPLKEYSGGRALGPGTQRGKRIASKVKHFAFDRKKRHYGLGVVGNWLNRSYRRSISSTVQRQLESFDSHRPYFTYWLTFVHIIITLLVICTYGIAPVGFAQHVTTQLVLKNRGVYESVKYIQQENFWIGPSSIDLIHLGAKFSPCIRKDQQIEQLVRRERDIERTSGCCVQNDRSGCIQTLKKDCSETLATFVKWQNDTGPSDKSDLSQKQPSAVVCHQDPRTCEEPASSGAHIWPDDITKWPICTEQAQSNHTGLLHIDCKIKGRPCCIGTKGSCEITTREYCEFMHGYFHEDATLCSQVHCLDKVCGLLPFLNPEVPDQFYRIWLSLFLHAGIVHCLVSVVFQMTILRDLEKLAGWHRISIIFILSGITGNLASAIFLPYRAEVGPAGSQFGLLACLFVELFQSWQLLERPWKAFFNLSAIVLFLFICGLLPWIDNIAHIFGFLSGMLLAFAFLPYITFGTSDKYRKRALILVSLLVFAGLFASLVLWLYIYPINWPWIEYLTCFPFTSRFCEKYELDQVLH
Experiment: co-IP; α-HA immunoprecipitates from HEK293ET cells expressing iRhom2-HA constructs, with or without PMA (30 min); TACE detected by blot, densitometry

binding: binds
Substance: TACE (TNF-α-converting enzyme), mature form, found in α-HA immunoprecipitates from HEK293ET cells (from UniProt P78536 215-824)
